Test results from PMC3774711.
Numbering of substitutions follows the chain as printed. No constants are given. Whether binding was seen depends on the method and setting. Binding seen in cells or lysates may run through a third protein. Some entries that bind do so weakly or less than the wild type. For some of these results: Where a sequence is shown, tags or fusion partners need not be part of it. Blank lines part the entries; values can stand above or below the binder they belong to.

What was measured:
[1] = target: T1, murine Myc-tagged full-length Popdc1 (mouse) (UniProt Q9ES83); test: co-IP; lysates of COS7 cells co-transfected with Cav3 and Myc-tagged Popdc1 constructs; agarose bound anti-Myc antibody; Western blot with anti-Cav3
T1 sequence: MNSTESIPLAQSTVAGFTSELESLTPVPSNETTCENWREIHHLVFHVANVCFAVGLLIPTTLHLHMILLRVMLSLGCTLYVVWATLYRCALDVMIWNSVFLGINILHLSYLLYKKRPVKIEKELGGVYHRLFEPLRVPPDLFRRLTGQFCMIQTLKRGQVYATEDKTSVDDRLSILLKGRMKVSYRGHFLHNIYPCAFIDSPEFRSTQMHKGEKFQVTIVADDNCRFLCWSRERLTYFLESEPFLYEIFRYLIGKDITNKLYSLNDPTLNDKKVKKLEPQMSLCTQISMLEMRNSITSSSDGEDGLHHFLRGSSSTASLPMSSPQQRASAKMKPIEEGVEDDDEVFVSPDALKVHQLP

[2] = target: T2, murine Myc-tagged Popdc1Δ116 (Popdc1 lacking 116 amino acids at the C terminus) (mouse) (UniProt Q9ES83); test: as above
T2 sequence: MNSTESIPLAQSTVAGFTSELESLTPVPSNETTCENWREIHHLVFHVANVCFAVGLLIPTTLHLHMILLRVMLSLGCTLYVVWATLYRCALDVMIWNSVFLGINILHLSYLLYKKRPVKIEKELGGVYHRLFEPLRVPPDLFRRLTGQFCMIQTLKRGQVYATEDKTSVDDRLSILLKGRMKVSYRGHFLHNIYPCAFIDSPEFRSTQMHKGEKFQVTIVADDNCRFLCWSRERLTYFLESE

[3] = target: T3, murine Myc-tagged Popdc1Δ92 (Popdc1 lacking 92 amino acids at the C terminus) (mouse) (UniProt Q9ES83); test: as above
T3 sequence: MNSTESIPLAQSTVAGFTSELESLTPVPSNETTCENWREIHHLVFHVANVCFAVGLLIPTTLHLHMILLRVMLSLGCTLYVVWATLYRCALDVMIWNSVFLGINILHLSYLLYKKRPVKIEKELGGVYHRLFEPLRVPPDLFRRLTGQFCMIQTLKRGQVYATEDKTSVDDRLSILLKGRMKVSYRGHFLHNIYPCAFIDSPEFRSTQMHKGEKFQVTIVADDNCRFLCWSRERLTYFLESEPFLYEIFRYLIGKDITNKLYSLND

[4] = target: T4, caveolin3 (Cav3), endogenous in neonatal rat cardiomyocytes (rat (endogenous in neonatal rat cardiomyocytes)) (UniProt P51638); test: co-IP; neonatal rat cardiomyocytes treated with the membrane permeable crosslinker dithio-bis-succinimidylpropionate; extracts incubated with rabbit anti-Popdc1 or mouse anti-Cav3 (or IgG controls), Protein A-Sepharose; Western blot for Popdc1 and Cav3
T4 sequence: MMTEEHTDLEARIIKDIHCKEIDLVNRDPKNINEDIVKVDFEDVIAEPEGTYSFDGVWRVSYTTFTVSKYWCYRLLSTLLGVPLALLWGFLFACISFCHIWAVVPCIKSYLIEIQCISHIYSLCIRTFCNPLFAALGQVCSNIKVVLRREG

binding [1]: binds | binding [2]: no binding | binding [3]: binds
B1: caveolin3 (Cav3) expressed in COS7 cells (protein, UniProt P51637 1-151)
chain: T4 sequence with R59K, Y62F

binding [4]: binds
B2: Popeye domain containing 1 (Popdc1), endogenous in neonatal rat cardiomyocytes (protein, UniProt Q3BCU4 1-356)
chain: MNFTEPSPLAQSTVVGFLPELESLTPVPSNETSCENWREVHHLVFHAANVCFAVGLLIPTTLHLHMILLRVMLSIGCTLYVVWATLYRCALDMMIWNSVFLGINILHLSYLLYKKRPVKIEKDLGGVYHRLFEPLRVPPDLFRRLTGQFCVIQTLKRGQVYATEDKTSVDDRLSILLKGRMKVSYRGHFLHNIYPCAFIDSPEFRSTQMHKGEKFQVTIVADDNCRFLCWSRERLTYFLESEPFLYEIFRYLIGKDITNKLYSLNDPTLNDKKVKKLEPQMSLSTQISMLEMRNSITSSSDIEDGLHHFLRGSSSTASLPMSSPQQRASPKMKPIEEGLEDDDEVFVPVSPAHQLP
